Results published in PubChem BioAssay AID1508600 (Functional Genomics Laboratory (NCATS/FGL), 2020).
About 3,700 (7%) of roughly 53,000 sequences were called active.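 The calls were made as follows: active = gene knockdowns whose robust z-score for IL-1 alpha signal is at least 2 or at most -2, so actives lie on both sides; inactive = the rest.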 Some of the results follow.

Assay: Components of the Cytosolic LPS Sensing Pathway: Gene Identification via Genome-wide siRNA Screen;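 also: robust z of the log signal after scaling to non-targeting control siRNA wells of the plate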
Settings: RAW264.7 macrophages, IL-1a HTRF, actives lie on both sides, screened at 100 nM (by protocol), cells primed 5 h with Pam3CSK4 first
Procedure, shortened: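 Cells (RAW264.7, 1×10^4 per well) were transfected with siRNA at 100 nM and cultured 48h at 37 degrees C. Pam3CSK4 was added for 5 hours; LipidA transfection followed for 24 hour. IL-1a was then measured by HTRF.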

Sequence | z-score
GCUGGACCCACACAAAAAGTT against Rhbdl3 | inactive: -0.0513
CCAACAGGAGAUACAAUUATT against Pclo | inactive: 0.677
GGAUAAUGAAGAAUGCCAATT against Abca4 | inactive: -0.533
GCCUUAUGGUUUUGUAUUUTT against Nap1l1 | active: -2.38
CCAGUAUCACUAAAGCACATT against Stx19 | inactive: -0.949
GGUCUCAUUGUUGGAAGAGTT against 4930433N12Rik | inactive: 0.58
GGAAAUCCGACCCUACAAATT against Taf12 | inactive: 1.09
GACCACUUUAUGGAUGAGUTT against Stx1b | inactive: 0.152
GCUAUGAAGCCAUUAAGAATT against Zfp292 | inactive: -0.529
CGCAAUACCAGCAAAAGACTT against Rtp3 | inactive: -0.927
GGUAGAAACAAAGAAAUAGTT against 9130023H24Rik | inactive: -0.183
GGGACAGAAUGUAAUUAAUTT against Olfr702 | inactive: -1.49
GGAACCUUGAAGCUUCUCUTT against Hrh3 | inactive: -0.545
GGCAGAAACAGUCCUUGUUTT against Gfra4 | inactive: -1.54
GCGUACCUGGACAAUGUGUTT against Fmnl3 | inactive: -1.33
GGAGACCUCCUCCAUGUUATT against Ptk6 | inactive: -0.82
GCGUGAGUCCCUAUAUGAATT against Tmem177 | active: 2.98
GCUUGUUAAAAUUGGAAAGTT against Kif11 | inactive: -1.47
GGCUGAAGACUUGAAAACGTT against Tipin | inactive: -0.291
GGUAACAACUUUUAAGCCUTT against Prps2 | inactive: -0.318
UGUAGAGAGAUAAUUGCUATT against Gm11545 | inactive: 0.668
GGCGAUGAGAAGUUUGAAUTT against Sbds | inactive: 0.654
GGAGGACUUUCAGUUAUAUTT against Ogfod3 | inactive: 1.32
CCAGCGGGAGACUUACGAATT against Nckap5l | inactive: 0.521
GGCCUUUAACAGUGUUGAGTT against Plag1 | inactive: -0.778
CCGACCUGAAACAGAUUAATT against Slc3a2 | inactive: -0.239
GGGAUUUCUGCACACCCUATT against A530053G22Rik | inactive: 0.788
CCCUUUCACAAAUAGCACATT against Crb3 | inactive: -0.0393
CGGCAACAACAUCACUCGGTT against Slit1 | inactive: -0.817

Some of the entries so far, comma-delimited.
Sequence,z-score
GCUGGACCCACACAAAAAGTT against Rhbdl3,inactive: -0.0513
GGUCUCAUUGUUGGAAGAGTT against 4930433N12Rik,inactive: 0.58
GCUAUGAAGCCAUUAAGAATT against Zfp292,inactive: -0.529
GGAACCUUGAAGCUUCUCUTT against Hrh3,inactive: -0.545
GCGUACCUGGACAAUGUGUTT against Fmnl3,inactive: -1.33
GGCUGAAGACUUGAAAACGTT against Tipin,inactive: -0.291
CCAGCGGGAGACUUACGAATT against Nckap5l,inactive: 0.521
CCGACCUGAAACAGAUUAATT against Slc3a2,inactive: -0.239
